The whole screen tested about 340,000 compounds, of which about 6,200 (1.8%) were called active. This list was built around the results that the source calls inconclusive (neither active nor inactive); the mix of calls is not that of the screen. The call rests on the fitted dose curve; in most records, active means well fitted activation curve with a large enough effect; inconclusive means small, poorly fitted or top-dose-only effect; inactive means no such curve, though single readings can be large or run the other way. A potency beside an inconclusive call is a rough fit, not a confirmed value.
Test: A quantitative high throughput screen for small molecules that induce DNA re-replication in SW480 colon adenocarcinoma cells. Further: nearly all actives have a fitted effect of over 55% in size. On re-replication activation: % of control where 0% means no effect.
Conditions: Hoechst DNA content imaging, 48 h; re-replication activation: at 46.1 µM (top of the series)
In short: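 Quantitative HTS format with DMSO vehicle controls; 48 hr drug incubation at 37 C, then 40 min Hoechst staining and scanning imager measurement at 405 nm excitation.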
Potency means the concentration at half of the fitted maximal effect.

**Q.** With OCCC1CN(Cc2ccon2)CCN1Cc1ccccc1 (centres undefined) as the molecule, how does the Potency read?
**A.** inconclusive: 25.9 µM [activator, partial curve, poor fit]

**Q.** With Nc1n[nH]c(N)c1N=Nc1ccc(Cl)cc1Cl as the molecule, how does the Potency read?
**A.** inconclusive: 14.6 µM [activator, partial curve, poor fit]

**Q.** Which Potency does the source give for Cc1ccc(-c2csc(N=C(N)N)n2)cc1 here?
**A.** inconclusive: 0.0103 µM [activator, full curve, poor fit]

**Q.** For CCC1Sc2ccc(S(=O)(=O)CCC(=O)Nc3ccc(C(=O)OC)cc3)cc2NC1=O (centres undefined), which “re-replication activation” value is on record?
**A.** inactive: -1.73%

**Q.** With O=C(c1ccc2c(c1)OCO2)C1CCCN(C2CCN(CCc3ccccc3)CC2)C1 (centres undefined) as the molecule, how does the Potency read?
**A.** inconclusive: 29.1 µM [activator, single point]

**Q.** With Cc1ccc(NC(=O)C2OCCc3ccccc32)cc1 (centres undefined) as the molecule, how does the Potency read?
**A.** inconclusive: 3.66 µM [activator, full curve, poor fit]

**Q.** With O=C1CN(C(=O)/C=C/c2ccc(Br)cc2)CCN1 as the molecule, how does the “re-replication activation” value read?
**A.** inactive: -3.21%

**Q.** With COC(=O)C1C(=O)C2=C(CC1C)NC(C)=C(C(=O)OC1CCCC1)C2c1ccc(N(C)C)cc1 (centres undefined) as the molecule, how does the Potency read?
**A.** inconclusive: 29.1 µM [activator, single point]

**Q.** Which Potency does the source give for CCN1C(=O)C(CC(=O)Nc2ccc(OC)cc2)N(CCCN2CCN(c3ccc(OC)cc3)CC2)C1=S (centres undefined) here?
**A.** inconclusive: 29.1 µM [activator, single point]

**Q.** With CCOc1ccc(Br)cc1C(=O)N/N=C/c1ccccn1 as the molecule, how does the Potency read?
**A.** inconclusive: 16.4 µM [activator, single point]

**Q.** For COc1cccc(/C=C/C(=O)NNC(=O)CCN2CCN(Cc3ccccc3)CC2)c1, which Potency is on record?
**A.** active: 3.66 µM

**Q.** Which Potency does the source give for COc1ccccc1/C=N/NC(=O)c1cccc(OC(F)(F)C(F)F)c1 here?
**A.** inconclusive: 2.06 µM [activator, partial curve, poor fit]

**Q.** With Cc1ccc(CN2CCC(c3cc(-c4ccc(Cl)cc4)n[nH]3)CC2)cc1 as the molecule, how does the Potency read?
**A.** inconclusive: 29.1 µM [activator, single point]

**Q.** Which Potency does the source give for S=c1[nH]cnc2scc(-c3ccccc3)c12 here?
**A.** inconclusive: 16.4 µM [activator, single point]

**Q.** With C[C@@H]1CN([C@H](C)CO)C(=O)c2cc(NC(=O)Nc3ccc(C(F)(F)F)cc3)ccc2O[C@H]1CN(C)C(=O)Nc1ccc(F)cc1 as the molecule, how does the Potency read?
**A.** inconclusive: 18.4 µM [activator, partial curve, poor fit]

**Q.** With CC(=O)Nc1cccc(-c2nnc3n2CC(C)S3)c1 (centres undefined) as the molecule, how does the “re-replication activation” value read?
**A.** inactive: 0.989%

**Q.** For O=C(O)CC/C(=N\Nc1ccc([N+](=O)[O-])cc1S(=O)(=O)N1CCOCC1)c1cccs1, which Potency is on record?
**A.** inconclusive: 23.1 µM [activator, single point]

**Q.** Which “re-replication activation” value does the source give for Cc1ccc(C2=NC(C)(C)NC2=O)cc1 here?
**A.** inactive: -0.375%

**Q.** With Clc1nssc1=Nc1ccc(Br)cc1 as the molecule, how does the Potency read?
**A.** inconclusive: 29.1 µM [activator, single point]

**Q.** With Cc1ccc(C2(C)NC(=O)N(CC(=O)Nc3ccc(N4CCOCC4)cc3N3CCOCC3)C2=O)cc1 (centres undefined) as the molecule, how does the Potency read?
**A.** inconclusive: 18.4 µM [activator, single point]

**Q.** For COc1ccc(Cl)cc1-c1nc(SCC(=O)NC2CC2)n[nH]1, which “re-replication activation” value is on record?
**A.** inactive: -9.55%

**Q.** For Cc1ccccc1C(=NCCCN(C)C)c1ccccc1C, which “re-replication activation” value is on record?
**A.** inactive: -4.27%

**Q.** For COc1ccc2oc(C)c(NC(C)=O)c2c1, which Potency is on record?
**A.** inconclusive: 4.11 µM [activator, single point]

**Q.** With CC(=O)Nc1ncc(Cc2cccc(Cl)c2)s1 as the molecule, how does the Potency read?
**A.** inconclusive: 20.6 µM [activator, single point]

**Q.** Which Potency does the source give for COc1cccc(-n2c(SCC(=O)NC3CCCCC3)nc3n[nH]c(C)c3c2=N)c1 here?
**A.** inconclusive: 29.1 µM [activator, single point]

**Q.** Which Potency does the source give for COc1ccc(-c2cc(C(F)(F)F)n3nc(C(=O)N4CCN5CCCC5C4)cc3n2)cc1OC (centres undefined) here?
**A.** inconclusive: 18.4 µM [activator, single point]

**Q.** For O=C(NC1(Cc2ccccc2)CCN(Cc2ccc(-c3ccccc3)cc2)C1=O)c1ccccc1 (centres undefined), which Potency is on record?
**A.** inconclusive: 23.1 µM [activator, single point]

**Q.** With Cc1ccc(NC(=O)CCl)cc1S(=O)(=O)N1CCCCCC1 as the molecule, how does the Potency read?
**A.** inconclusive: 8.2 µM [activator, partial curve]

**Q.** For COc1ccc(C2=NS(=O)(=O)N(C)C(C(=O)NCc3ccccn3)=C2)cc1OC, which “re-replication activation” value is on record?
**A.** inactive: -0.325%

**Q.** With COc1ccc(NC(=O)CSc2nnc(-c3cccnc3)o2)c(OC)c1 as the molecule, how does the “re-replication activation” value read?
**A.** inactive: -2.67%

**Q.** With Cc1ccc(C)c(NC(=S)NC(NC(=O)OCc2ccccc2)C(Cl)(Cl)Cl)c1 (centres undefined) as the molecule, how does the Potency read?
**A.** inconclusive: 16.4 µM [activator, partial curve]

**Q.** For COc1ccc(C(C)=O)cc1COC(=O)c1ccc(S(=O)(=O)N(C)C)cc1, which re-replication activation is on record?
**A.** inconclusive: -50.6% [activator]

**Q.** With CC(C)Cn1c(SC(C)C(=O)NC2CC2)nnc1-c1ccccc1F (centres undefined) as the molecule, how does the Potency read?
**A.** inconclusive: 23.1 µM [activator, single point]

**Q.** Which Potency does the source give for CC1CCN(S(=O)(=O)c2ccc3c(c2)N(CC(=O)NCCCN(Cc2ccccc2)C(C)C)C(=O)CO3)CC1 here?
**A.** inconclusive: 29.1 µM [activator, single point]

— PubChem BioAssay AID624297 (National Center for Advancing Translational Sciences (NCATS), 2012)
